These results are taken from the supplement of paper PMC5949888.

Most values lie at the floor of the assay. Slopes are relative: functional sequences can read slightly below zero. Bounds are passed on as bounds.

This data set has as its system Saccharomyces cerevisiae PS128 hsf1 delta, HSF1(1-493) fusion. Put plainly: growth estimate (transactivation domain function in HSF1 fusion, heat-shock survival) (a.u. (slope of normalised read count over time)); higher = stronger growth at 37°C, i.e. more transactivation activity. The conditions noted are these: library: random library.
For VWWGRHPRPRGCGWLDYIL, the growth estimate is less than -0.25. In the case of SHGWVCCGIYKWGCHGIVG, the growth estimate is less than -0.25. Next, HLIGV: less than -0.25. Then CPGGAVRIDSIGIGVIKADT, with less than -0.25; and TFVGKELT, with -0.231; and SRGQPTHTHQNGG, with less than -0.25.

With TSGTLKRLTRPAS, the growth estimate was less than -0.25. Then RVIR, with less than -0.25; and LIRHDAH, with less than -0.25.

With WDGVVAVASGTKLFETIVSV, the growth estimate was less than -0.25. In the case of PRAK, the growth estimate is less than -0.25. Next, SQRVGLEYRSPAGTSGVCTR: less than -0.25. Then QSMKS, with less than -0.25. In the case of VSTRQLETVRPGFRWQISRI, the growth estimate was less than -0.25. TLCDRIE: the growth estimate was less than -0.25. Next, DRNQLCFKPNLQ: less than -0.25; KVQQDKFCMTKSNITQYYYV: less than -0.25. Then VVMAVRRLRTQGCEVDCRNI, with less than -0.25; and KRRGIH, with less than -0.25. Then LKCGLTGTIIVVEVHGGAWR, with less than -0.25. On to LIGIFYLDWESLLSRPGVTG, for which the growth estimate is less than -0.25. Take DVRYDGPYYHRQKVRL: the growth estimate was less than -0.25. Regarding FNPLRPVSW, the growth estimate is less than -0.25. Then GRPYAKVISCM, with less than -0.25; and LCETGALYMRVHTAWWIDIG, with less than -0.25. Next, CIDHPVR: less than -0.25; ARHGCSGWLILS: less than -0.25.

Consider PVW, for which the growth estimate is less than -0.25. In the case of GEIGP, the growth estimate was less than -0.25. Next, PSQIACGKQPIQVA: less than -0.25; GHGNVSGGTLNHASAGGGRM: less than -0.25; GSMM: less than -0.25.

With NTEGLVVAGAIAE, the growth estimate was less than -0.25. Next, VITVSCL: less than -0.25; CPMGTVSQIKRQGTILYNHP: less than -0.25; TDSSP: less than -0.25. Turning to ELSGNSWDTEWDLGAHSASG, the growth estimate is less than -0.25.

Consider RSARPVPDVPILNSTSRRND, for which the growth estimate is less than -0.25. FYFQLMKAWFCW: the growth estimate was less than -0.25. Next, LCQAPCNARSGKTRFCSHAL: less than -0.25; LITGH: less than -0.25; FIAMWSTHVVIVF: less than -0.25. Regarding GVCIYPRQLRVNFLTVRPGG, the growth estimate is less than -0.25. Turning to GTLTFKRIRLVILTSCTTTQ, the growth estimate was less than -0.25.

As to LRRFGMEASRGHVRIVDGSR, the growth estimate is less than -0.25. Then LLGTVSLH, with less than -0.25; and TGPPCSRIRTH, with less than -0.25; and QWGRY, with less than -0.25. In the case of DAYIGMVLYAL, the growth estimate is less than -0.25. Next, PGRPALHILLGN: less than -0.25.

For the substance YHPTAGCIFVEIRHSGRFAC, the growth estimate is less than -0.25. Next, GNAPSCLLMLFSSSDRY: less than -0.25; TWIDRFQRDEQLPC: less than -0.25. Next, QLVLVLMPKKHGCRLKRCSG: less than -0.25. On to FDQCDRVRRFLPRQYRLQGN, for which the growth estimate was less than -0.25. With LESASAFPL, the growth estimate is less than -0.25. Next, MDTVWVGTPGLGCTR: less than -0.25; SGKLWI: less than -0.25. Next, LLVRECRRNNLGTRTRACSY: less than -0.25. GDAISVNNDESETTIRLWHS: the growth estimate is less than -0.25. Then GGGRNLYLEVHIGGRRFKVH, with less than -0.25.

Consider APRICLSKKVLLGILEWSFS, for which the growth estimate is less than -0.25.

Take VTTPATG: the growth estimate was less than -0.25. Next, KSVIALHCPGDEREVRISSL: less than -0.25; SFTPGD: less than -0.25.
